# The whole screen tested about 350,000 compounds, of which about 6,000 (1.7%) were called active. Inconclusive results, whose numbers are uncertain, are shown with a selection of clear calls. No stated cut-off is given here; in the data, active means CPE inhibition above about 20% (passing the limit was not always enough); inconclusive means no clear call, values can overlap the other calls; tested in BHK-21 cells. Where a structure was tested more than once in an assay, its records may differ in their call.
# Experiment: protection of cells from dengue 2 killing – plate reader, single concentration, primary screen (AID 651640);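 further: 0% = median of neutral control wells and 100% = median of positive control wells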
# Conditions: DENV2-infected cells, cytopathic effect rescue, at 9.99 µM, stronger effect = higher value
row,Structure (SMILES),CPE inhibition
1,CCOC(=O)c1[nH]c2ccc(OC)cc2c1NC(=S)N1CCN(c2cccc(C)c2C)CC1,inconclusive: 33.8%
2,O=C(CN1CCN(Cc2ccccc2Cl)CC1)N/N=C/c1ccco1,inconclusive: 27.2%
3,CCOC(=O)C1=NN2C(O)C3(C)CC(C(=O)OCC)=NN3C(O)C2(C)C1 (stereo unspecified),inconclusive: 31.4%
4,COc1ccc(CN(C)C[C@H]2Oc3ccc(NS(=O)(=O)c4ccc(Cl)cc4)cc3CC(=O)N([C@@H](C)CO)C[C@@H]2C)cc1,active: 24.5%
5,O=C(c1ccc(NC2=NC3CS(=O)(=O)CC3S2)cc1)N1CCN(c2ccc(F)cc2)CC1 (stereo unspecified),inconclusive: 32.7%
6,CCS(=O)(=O)N1Cc2cc(C(=O)N(C)C)nc(-c3cccc(-c4ccc(C#N)cc4)c3)c2[C@H]1CCO,active: 20.3%
7,C[C@@H]1CN([C@@H](C)CO)C(=O)c2cc(C#Cc3cccnc3)cnc2O[C@H]1CN(C)S(C)(=O)=O,inconclusive: 20.9%
8,CN1[C@@H]2Cn3c(ccc(C4=CCCC4)c3=O)[C@H]1[C@@H](C(=O)N1CCOCC1)[C@@H]2CO,inconclusive: 21.5%
9,CC(=O)c1sc2nc(-c3ccco3)ccc2c1N,inactive: 12.8%
10,Clc1ccc(-c2ccc(CNCc3ccccn3)o2)cc1,inconclusive: 21.1%
11,COc1ccc(S(=O)(=O)c2c(O)cc(C)c(NS(=O)(=O)c3ccccc3)c2C)cc1,inconclusive: 34.8%
12,CCNC(=O)C[C@@H]1C=C[C@H](NS(=O)(=O)c2ccc(F)cc2)[C@H](CO)O1,inactive: 1.65%
13,CC(C)Oc1cccc(C(=O)C2CCCN(C(=O)CCc3cnn(C)c3)C2)c1 (stereo unspecified),inactive: -4.86%
14,O=C(N[C@H]1CC[C@H](CC(=O)N2CCOCC2)O[C@H]1CO)c1ccc2c(c1)OCO2,inactive: 5.09%
15,COc1ccc(S(=O)(=O)Nc2cccc3c2O[C@H](CN(C)C(=O)Nc2ccc(F)cc2)[C@H](C)CN([C@H](C)CO)C3=O)cc1,inconclusive: 41.6%
16,CO[C@H]1CC[C@@H]2CCOc3c(C#N)cccc3C(=O)N(C)C[C@H](C)C(=O)N(C)C[C@@H]1O2,inactive: -1.03%
17,C[C@H](CO)N1C[C@H](C)[C@@H](CN(C)Cc2ccc(-c3ccccc3)cc2)Oc2cc(C#CC(C)(C)O)ccc2S1(=O)=O,inconclusive: 29%
18,CO[C@@H]1CN(C)C(=O)c2ccc(NC(=O)Nc3cccc(Cl)c3)cc2OC[C@H](C)N(C(=O)Nc2c(C)noc2C)C[C@H]1C,active: 30.6%
19,Cc1ccc(NC(=O)CCNC(=O)N2CC(=O)Nc3ccccc32)cc1Cl,inconclusive: 34.3%
20,Cc1ccc(S(=O)(=O)Nc2ccc3c(c2)C(=O)N([C@H](C)CO)C[C@H](C)[C@@H](CN(C)C(=O)C2CCCCC2)OCCCC[C@@H](C)O3)cc1,inactive: -4.57%
21,C[C@@H]1CN([C@H](C)CO)C(=O)CCCn2nncc2CO[C@H]1CN(C)C(=O)Nc1ccccc1F,inactive: -0.075%
22,O=C(c1cccnc1)N1C[C@H]2[C@@H](c3ccccc31)[C@@H](CO)N2C(=O)Nc1ccccc1,inconclusive: 26.2%
23,CC(=O)c1c(C)[nH]c(C(=O)NCc2ccccc2F)c1C,inconclusive: 21.8%
24,Cc1cc(=O)oc2c(C)c(OC(C)C(=O)NCCCN3CCCC3=O)ccc12 (stereo unspecified),inactive: -0.931%

row,Structure (SMILES),CPE inhibition
1,O=C(C1=NN(c2ccccc2)C2C(=O)N(c3cccc(Cl)c3)C(=O)C12)c1ccccc1 (stereo unspecified),inactive: -1.06%
2,C[C@H]1CN([C@@H](C)CO)C(=O)Cc2cc(NC(=O)C3CC3)ccc2O[C@H]1CN(C)C,inactive: -2.19%
3,COc1ccccc1CNC(=O)C[C@@H]1C[C@@H]2c3cc(NC(=O)c4ccc5c(c4)OCO5)ccc3O[C@@H]2[C@@H](CO)O1,inactive: 3.93%
4,COc1cccc(-c2ccc3c(c2)[C@@H]2[C@@H](CCN2S(=O)(=O)c2ccccc2OC)[C@H](CO)N3)c1,inactive: -19.2%
5,Cc1cn([C@H]2C=C[C@@H](CO)O2)c(=O)[nH]c1=O,active: 29%
6,CCCC[C@@H]1C=C(C(=O)O)[C@H](c2ccc(Br)cc2)N1S(=O)(=O)c1ccc(C)cc1,inconclusive: 41.3%
7,CC(CNC(=O)[C@H]1O[C@@H](n2cnc3c(=O)[nH]c(N)nc32)[C@H](O)[C@@H]1O)c1ccccc1 (stereo partly specified),active: 67.9%
8,CCCn1cnc2c(SCc3ccc(Cl)cc3)nc(N)nc21,inconclusive: 20.4%
9,O=C(/C=C/c1ccc(N2CCCCC2)c([N+](=O)[O-])c1)c1ccc(O)cc1,inactive: 9.12%
10,COc1cccc(CN2CC3(CN(Cc4ccccn4)C3)c3c([nH]c4cc(OC)ccc34)[C@H]2CO)c1,inconclusive: 25%
11,CC1CCN(c2nc3ccc(C(=O)NCCCN4CCCCC4C)cc3s2)CC1 (stereo unspecified),inconclusive: 38.8%
12,COc1ccc(CN(C)C[C@H]2OCCCC[C@@H](C)Oc3ccc(NC(=O)c4ccccc4)cc3C(=O)N([C@@H](C)CO)C[C@H]2C)cc1,inconclusive: 21.8%
13,O=NN(CCCl)C(=O)NCC1=C[N+](=O)CC=C1,inconclusive: 34.6%
14,O=C1[C@H]2[C@@H](c3ccccc3)N[C@]3(CCCN(Cc4ccc(C(F)(F)F)cc4)C3=O)[C@H]2C(=O)N1Cc1ccccc1,inconclusive: 63.8%
15,C[C@@H](NC(=O)[C@@H]1[C@@H](CO)[C@@H]2Cn3c(cccc3=O)[C@@H]2N1Cc1ccncc1)c1ccccc1,inconclusive: 54.1%
16,COCC(=O)Nc1ccc2c(c1)[C@H]1C[C@H](CC(=O)NCC3CC3)O[C@H](CO)[C@H]1O2,inactive: 16.4%
17,Cc1ccccc1S(=O)(=O)N(C)C[C@H]1OCc2cn(nn2)CCCC(=O)N([C@H](C)CO)C[C@@H]1C,inconclusive: 44.1%
18,Cc1cccc(NC(=O)Nc2ccc3c(c2)C(=O)N(C)[C@H]2CC[C@@H](CC(=O)O)O[C@@H]2CO3)c1,inactive: -3.8%
19,C[C@@H]1CCCCO[C@H](CN(C)S(=O)(=O)c2ccc(F)cc2)[C@H](C)CN([C@H](C)CO)C(=O)c2cc(NC(=O)C3CCCCC3)ccc2O1,inconclusive: 23.1%
20,CCCNc1c(NS(=O)(=O)c2ccc(C)cc2C)c(=O)oc2ccccc12,inactive: 6.78%
21,CN1C/C(=C/c2cccnc2)C(=O)/C(=C/c2cccnc2)C1,inconclusive: 32.7%
22,C[C@H]1CN([C@@H](C)CO)C(=O)c2cc(C3=CCCC3)cnc2O[C@@H]1CN(C)C(=O)Nc1ccc(F)cc1,inactive: 6.45%
23,CNC(=O)c1cc(Oc2ccc(NC(=O)c3[nH]c(-c4ccccc4)c4c3C(=O)N(C)C4=O)cc2)ccn1,inconclusive: 35.1%
24,CC1=NN(C(N)=S)C(=O)C1N=Nc1ccccc1O (stereo unspecified),inactive: -1.49%

row,Structure (SMILES),CPE inhibition
1,CCCc1cn(CC[C@@H]2CC[C@H](NC(=O)C3CCC3)[C@@H](CO)O2)nn1,inactive: 5.37%
2,O=[N+]([O-])c1cc(S(=O)(=O)N2CCCCC2)ccc1NCCN1CCOCC1,inconclusive: 25.6%
3,O=C1OC(c2ccccc2)(N(Nc2ccccc2)c2ccccc2)c2ccccc21 (stereo unspecified),active: 23.9%
4,COc1ccc(S(=O)(=O)Nc2ccc3c(c2)C(=O)N([C@H](C)CO)C[C@H](C)[C@H](CN(C)C(=O)Nc2ccccc2)O3)cc1,inactive: 15.8%
5,CNC[C@@H]1OCCCC[C@@H](C)Oc2ccc(NC(=O)Nc3ccc4c(c3)OCO4)cc2C(=O)N([C@H](C)CO)C[C@@H]1C,inconclusive: 25.8%
6,C[C@@H]1CN([C@H](C)CO)S(=O)(=O)c2ccc(C#CCN(C)C)cc2O[C@H]1CN(C)Cc1ccc2c(c1)OCO2,inactive: -15.2%
7,O=[N+]([O-])c1cc(S(=O)(=O)O)cc([N+](=O)[O-])c1NN(c1ccccc1)c1ccccc1,inactive: 0.052%
8,CC[C@H](C)[C@H]1CNC(=S)N1CC1CCN(CCCCc2ccccc2)CC1,inconclusive: 25.8%
9,Cc1ccc(S(=O)(=O)N(C)C[C@H]2OCCCC[C@H](C)Oc3ccc(NC(=O)NC4CCCCC4)cc3C(=O)N([C@H](C)CO)C[C@H]2C)cc1,inactive: 5.66%
10,CCOC(=O)N1CCN(C(=O)C2CCCN(S(=O)(=O)c3cc(C)ccc3OC)C2)CC1 (stereo unspecified),inconclusive: 28.1%
11,CCCCCCC(=O)O,active: 58.1%
12,CCCCNC(=O)C1(C)CCN1C(=O)c1ccccc1Br (stereo unspecified),inconclusive: 21.5%
13,Cc1nn(CC(=O)NC2CCCC2)c(C)c1[N+](=O)[O-],inconclusive: 24.1%
14,COc1ccc(S(=O)(=O)Nc2ccc3c(c2)C(=O)N([C@@H](C)CO)C[C@H](C)[C@H](CN(C)C(=O)NC(C)C)OCCCC[C@H](C)O3)cc1,inconclusive: 44%
15,Cc1cc(Br)ccc1SCC(=O)NNC(=O)c1ccco1,inconclusive: 73%
16,CCC(=O)N1CC2(CC(c3cccc(NC(=O)CC(c4ccccc4)c4ccccc4)c3)=NO2)C[C@H]1C(N)=O (stereo partly specified),inconclusive: 35.8%
17,CN(C(=O)c1ccc(Br)o1)C1CCCCC1,active: 60.8%
18,O=C(NCCc1ccccn1)c1cncc(Br)c1,inconclusive: 30%
19,O=C(CC1CC1)N1[C@H](CO)[C@@H](c2ccccc2)C12CN(Cc1ccccc1F)C2,inactive: 6.65%
20,CCCNC(=O)C[C@@H]1CC[C@H]2[C@@H](COc3ccc(NC(=O)CCC)cc3C(=O)N2C)O1,inactive: 0.768%
21,COc1ccccc1NC(=O)N1C[C@H]2[C@@H](c3ccccc31)[C@H](CO)N2Cc1ccc2c(c1)OCO2,active: 55.6%
22,CC(C)(C)c1ccc(C(=O)NCCC(=O)NCc2cccs2)cc1,inconclusive: 41.1%
23,O=C(NCC[C@@H]1CC[C@@H](NC(=O)C2CC2)[C@H](CO)O1)c1ccc(F)cc1,inactive: -1.69%

# Reformatted tab-delimited: part of the list above
row	Structure (SMILES)	CPE inhibition
9	Cc1ccc(S(=O)(=O)N(C)C[C@H]2OCCCC[C@H](C)Oc3ccc(NC(=O)NC4CCCCC4)cc3C(=O)N([C@H](C)CO)C[C@H]2C)cc1	inactive: 5.66%
15	Cc1cc(Br)ccc1SCC(=O)NNC(=O)c1ccco1	inconclusive: 73%
18	O=C(NCCc1ccccn1)c1cncc(Br)c1	inconclusive: 30%
21	COc1ccccc1NC(=O)N1C[C@H]2[C@@H](c3ccccc31)[C@H](CO)N2Cc1ccc2c(c1)OCO2	active: 55.6%
22	CC(C)(C)c1ccc(C(=O)NCCC(=O)NCc2cccs2)cc1	inconclusive: 41.1%

# Source: PubChem BioAssay AID651640 (Broad Institute, 2012)
